# Assay results taken from the supplement of paper PMC8728848.
# The list shows a part of the results.
# B1: NKp30 (Homo sapiens), O14931 (protein)
# chain: LWVSQPPEIRTLEGSSAFLPCSFNASQGRLAIGSVTWFRDEVVPGKEVRNGTPEFRGRLAPLASSRFLHDHQAELHIRDVRGHDASIYVCRVEVLGLGVGTGNGTRLVVEKEHPQLG
# Experiments:
# Assay in all cases: glycan array binding signal (z-score within array); higher = stronger binding
# Conditions in all cases: glycan notation: IUPAC condensed, linker removed
# Fuc(a1-2)Gal = target: Fuc(a1-2)Gal
# Method in brief: (§1)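 The Consortium for Functional Glycomics database supplied 3228 glycan arrays, of which those lacking an available protein sequence were dropped. The binding signal, a within-array Z-score, was averaged across arrays of the same protein sequence and across linkers. Negative scores can be read as non-binding.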
# Fuc(a1-2)Gal(b1-3)GalNAc = target: Fuc(a1-2)Gal(b1-3)GalNAc
# Method in brief: as §1
# [1] = target: Fuc(a1-2)Gal(b1-3)GalNAc(b1-3)Gal
# Method in brief: as §1
# [2] = target: Fuc(a1-2)Gal(b1-3)GalNAc(b1-3)Gal(a1-4)Gal(b1-4)Glc
# Method in brief: as §1
# [3] = target: Fuc(a1-2)Gal(b1-3)GalNAc(b1-3)Gal(b1-4)Glc
# Method in brief: as §1
# [4] = target: Fuc(a1-2)Gal(b1-3)GalNAc(b1-4)[Neu5Ac(a2-3)]Gal(b1-4)Glc
# Method in brief: as §1
# [5] = target: Fuc(a1-2)Gal(b1-3)[Fuc(a1-4)]GlcNAc
# Method in brief: as §1
# Fuc(a1-2)Gal(b1-4)Glc = target: Fuc(a1-2)Gal(b1-4)Glc
# Method in brief: as §1
# Fuc(a1-2)Gal(b1-4)Glc6S = target: Fuc(a1-2)Gal(b1-4)Glc6S
# Method in brief: as §1
# Fuc(a1-2)Gal(b1-4)GlcNAc = target: Fuc(a1-2)Gal(b1-4)GlcNAc
# Method in brief: as §1
# [6] = target: Fuc(a1-2)Gal(b1-4)GlcNAc(b1-3)Gal(b1-4)GlcNAc
# Method in brief: as §1
# [7] = target: Fuc(a1-2)Gal(b1-4)GlcNAc(b1-3)Gal(b1-4)GlcNAc(b1-3)Gal(b1-4)GlcNAc
# Method in brief: as §1
# [8] = target: Fuc(a1-2)Gal(b1-4)GlcNAc6S
# Method in brief: as §1
# [9] = target: Fuc(a1-2)Gal(b1-4)[Fuc(a1-3)]GalNAc(b1-3)Gal(b1-4)[Fuc(a1-3)]GlcNAc
# Method in brief: as §1
# [10] = target: Fuc(a1-2)Gal(b1-4)[Fuc(a1-3)]GalNAc(b1-3)Gal(b1-4)[Fuc(a1-3)]GlcNAc(b1-3)Gal(b1-4)[Fuc(a1-3)]GalNAc
# Method in brief: as §1
# [11] = target: Fuc(a1-2)Gal(b1-4)[Fuc(a1-3)]GlcNAc
# Method in brief: as §1
# Fuc(a1-2)Gal6S(b1-4)Glc = target: Fuc(a1-2)Gal6S(b1-4)Glc
# Method in brief: as §1
# [12] = target: Fuc(a1-2)Gal6S(b1-4)Glc6S
# Method in brief: as §1
# [13] = target: Fuc(a1-2)Gal6S(b1-4)GlcNAc
# Method in brief: as §1
# Fuc(a1-2)GlcNAc = target: Fuc(a1-2)GlcNAc
# Method in brief: as §1
# Fuc(a1-2)[Gal(a1-3)]Gal = target: Fuc(a1-2)[Gal(a1-3)]Gal
# Method in brief: as §1
# [14] = target: Fuc(a1-2)[Gal(a1-3)]Gal(b1-3)GlcNAc
# Method in brief: as §1
# [15] = target: Fuc(a1-2)[Gal(a1-3)]Gal(b1-4)Glc
# Method in brief: as §1
# [16] = target: Fuc(a1-2)[Gal(a1-3)]Gal(b1-4)GlcNAc
# Method in brief: as §1
# [17] = target: Fuc(a1-2)[Gal(a1-3)]Gal(b1-4)[Fuc(a1-3)]GlcNAc
# Method in brief: as §1
# [18] = target: Fuc(a1-2)[Gal(a1-4)]Gal(b1-4)GalNAc
# Method in brief: as §1
# [19] = target: Fuc(a1-2)[GalNAc(a1-3)]Gal
# Method in brief: as §1
# [20] = target: Fuc(a1-2)[GalNAc(a1-3)]Gal(b1-3)GlcNAc
# Method in brief: as §1
# [21] = target: Fuc(a1-2)[GalNAc(a1-3)]Gal(b1-4)Glc
# Method in brief: as §1
# [22] = target: Fuc(a1-2)[GalNAc(a1-3)]Gal(b1-4)GlcNAc
# Method in brief: as §1
# [23] = target: Fuc(a1-2)[GalNAc(a1-3)]Gal(b1-4)[Fuc(a1-3)]GlcNAc
# Method in brief: as §1
# [24] = target: Fuc(a1-2)[GalNAc(a1-4)]Gal(b1-4)GlcNAc
# Method in brief: as §1
# Fuc(a1-3)GlcNAc = target: Fuc(a1-3)GlcNAc
# Method in brief: as §1
# [25] = target: Fuc(a1-3)[Gal(b1-4)]Glc6S
# Method in brief: as §1
# [26] = target: Fuc(a1-3)[Gal(b1-4)]GlcNAc
# Method in brief: as §1
# [27] = target: Fuc(a1-3)[Gal(b1-4)]GlcNAc(b1-3)Gal(b1-3)[Fuc(a1-4)]GlcNAc
# Method in brief: as §1
# [28] = target: Fuc(a1-3)[Gal(b1-4)]GlcNAc(b1-4)Gal(b1-4)[Fuc(a1-3)]GlcNAc
# Method in brief: as §1
# [29] = target: Fuc(a1-3)[Gal(b1-4)]GlcNAc(b1-4)Gal(b1-4)[Fuc(a1-3)]GlcNAc(b1-4)Gal(b1-4)[Fuc(a1-3)]GlcNAc
# Method in brief: as §1
# [30] = target: Fuc(a1-3)[Gal(b1-4)]GlcNAc6S
# Method in brief: as §1
# [31] = target: Fuc(a1-3)[Gal3S(b1-4)]Glc
# Method in brief: as §1
# [32] = target: Fuc(a1-3)[Gal3S(b1-4)]Glc6S
# Method in brief: as §1
# [33] = target: Fuc(a1-3)[Gal3S(b1-4)]GlcNAc
# Method in brief: as §1
# [34] = target: Fuc(a1-3)[Gal3S(b1-4)]GlcNAc6S
# Method in brief: as §1
# [35] = target: Fuc(a1-3)[GalNAc(b1-4)]Gal(b1-4)GlcNAc
# Method in brief: as §1
# Fuc(a1-4)GlcNAc = target: Fuc(a1-4)GlcNAc
# Method in brief: as §1
binder,measurement,setting,value
B1,glycan array binding signal (z-score),Fuc(a1-2)Gal,-0.068
same,glycan array binding signal (z-score),Fuc(a1-2)Gal(b1-3)GalNAc,-0.862
same,glycan array binding signal (z-score),[1],-0.277
same,glycan array binding signal (z-score),[2],-0.336
same,glycan array binding signal (z-score),[3],-0.109
same,glycan array binding signal (z-score),[4],0.315
same,glycan array binding signal (z-score),[5],-0.91
same,glycan array binding signal (z-score),Fuc(a1-2)Gal(b1-4)Glc,-0.657
same,glycan array binding signal (z-score),Fuc(a1-2)Gal(b1-4)Glc6S,-0.007
same,glycan array binding signal (z-score),Fuc(a1-2)Gal(b1-4)GlcNAc,-0.918
same,glycan array binding signal (z-score),[6],-0.633
same,glycan array binding signal (z-score),[7],0.364
same,glycan array binding signal (z-score),[8],0.882
same,glycan array binding signal (z-score),[9],-0.841
same,glycan array binding signal (z-score),[10],-0.325
same,glycan array binding signal (z-score),[11],-0.412
same,glycan array binding signal (z-score),Fuc(a1-2)Gal6S(b1-4)Glc,0.562
same,glycan array binding signal (z-score),[12],2.23
same,glycan array binding signal (z-score),[13],0.627
same,glycan array binding signal (z-score),Fuc(a1-2)GlcNAc,-0.232
same,glycan array binding signal (z-score),Fuc(a1-2)[Gal(a1-3)]Gal,-0.106
same,glycan array binding signal (z-score),[14],-0.619
same,glycan array binding signal (z-score),[15],-0.661
same,glycan array binding signal (z-score),[16],-0.444
same,glycan array binding signal (z-score),[17],-0.895
same,glycan array binding signal (z-score),[18],-0.714
same,glycan array binding signal (z-score),[19],-0.924
same,glycan array binding signal (z-score),[20],-1.15
same,glycan array binding signal (z-score),[21],-0.615
same,glycan array binding signal (z-score),[22],-0.649
same,glycan array binding signal (z-score),[23],-0.587
same,glycan array binding signal (z-score),[24],-0.754
same,glycan array binding signal (z-score),Fuc(a1-3)GlcNAc,-0.957
same,glycan array binding signal (z-score),[25],0.801
same,glycan array binding signal (z-score),[26],-0.932
same,glycan array binding signal (z-score),[27],0.821
same,glycan array binding signal (z-score),[28],-0.545
same,glycan array binding signal (z-score),[29],-0.964
same,glycan array binding signal (z-score),[30],1.46
same,glycan array binding signal (z-score),[31],0.441
same,glycan array binding signal (z-score),[32],0.61
same,glycan array binding signal (z-score),[33],0.697
same,glycan array binding signal (z-score),[34],0.561
same,glycan array binding signal (z-score),[35],-0.69
same,glycan array binding signal (z-score),Fuc(a1-4)GlcNAc,-0.16

# Part of the list above in a different format:
binder	measurement	setting	value
B1	glycan array binding signal (z-score)	[18]	-0.714
same	glycan array binding signal (z-score)	[19]	-0.924
